From PubChem BioAssay AID1487 (National Center for Advancing Translational Sciences (NCATS), 2009)
Some of the results follow. The main result of the screen is listed elsewhere. These columns were measured beside it and carry no call. The list favours compounds with an active or inconclusive main result. The note in brackets gives the kind of curve behind each potency; many fits are weak.

Assay: qHTS Assay for Modulators of Lamin A Splicing
Conditions: HeLa LMNA splicing GFP/RFP minigene ratio, 48 h
How it was run: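 S3 HeLa stable clones carrying a lamin A-EGFP splicing minigene plus DsRed2 were seeded at 600 cells/well in Opti-MEM with 2% FBS, pin-dosed and incubated 48 h at 37°C. Acumen cytometry (488 nm) gave the GFP/RFP total-intensity ratio.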

[1] = measured here: GFP splicing reporter channel
[2] = measured here: RFP viability control channel

Structure (SMILES) | AC50 [1] | AC50 [2]
COC(=O)N/N=C(\C)c1ccc(-n2ccnc2)cc1 | 3.16 µM [falling, single point] | 3.55 µM [falling, full curve, poor fit]
Cc1cccc(C)c1-n1nnnc1S(=O)(=O)Cc1ccccc1Cl | 12.6 µM [rising, single point] | 31.6 µM [rising, single point]
CCn1c(SCC(=O)Nc2nc3ccc(OC)cc3s2)nc2c1c(=O)n(C)c(=O)n2C | 17.8 µM [rising, partial curve] | –
CCC1CN(C(=O)N2CCC(C(=O)NCCCc3ccccc3)CC2)c2cc(C)ccc2O1 (stereo not given) | – | 0.178 µM [falling, full curve, poor fit]
CC(=O)Nc1ccccc1C(=O)C(=O)Nc1cccc(C(=O)NCc2ccc(C)cc2)c1 | – | 0.398 µM [rising, full curve, poor fit]
COc1ccc(S(=O)(=O)N(CC(=O)Nc2ccc(S(=O)(=O)N3CCOCC3)cc2)Cc2ccc(F)cc2)cc1 | – | 11.2 µM [rising, single point]
O=C(CCCc1ccccc1)NCc1ccc(F)cc1 | 3.55 µM [rising, full curve, poor fit] | 3.55 µM [rising, full curve, poor fit]
CCOC(=O)c1ccc(NC(=O)CN2C(=O)C(C)(C)c3ccccc32)cc1 | 35.5 µM [falling, partial curve] | 7.94 µM [falling, full curve]
Cc1ccc(C)c(NC(=O)c2cnn(-c3ccc(F)cc3F)c2C2CCNCC2)c1 | 0.794 µM [falling, full curve, poor fit] | –
O=C(NC1CC1)c1ccc2c(c1)C1C3CCC(C3)C1C(c1ccccc1)N2 (stereo not given) | – | 17.8 µM [rising, single point]
Cc1ncc(C[n+]2csc(CCOP(=O)(O)OP(=O)(O)O)c2C)c(N)n1 | 17.8 µM [falling, single point] | 2.82 µM [falling, single point]
Cn1c(=O)c2nc(NCc3ccccc3)cnc2n(C)c1=O | – | 17.8 µM [rising, partial curve, poor fit]
O=C(O)c1ccc(CSc2nnc(SCc3ccccc3)s2)cc1 | – | 35.5 µM [rising, single point]
COc1ccc(N2CCN(C(=O)c3ccc(N4C(=O)NC5CC4(C)Oc4ccccc45)cc3)CC2)cc1 (stereo not given) | – | 12.6 µM [rising, single point]
Nc1nc(NC(=O)c2ccccc2)nn1-c1ccccc1 | – | 0.562 µM [falling, full curve, poor fit]
Cc1cc(O)c(C(c2ccccc2)N2CCC(C)CC2)c(=O)n1Cc1ccco1 (stereo not given) | – | 4.47 µM [falling, single point]
Cc1cccc(OCC(=O)Nc2ccc(S(=O)(=O)N3CCCC3)cc2)c1 | – | 11.2 µM [rising, partial curve]
CC(=O)c1ccc(NC(=O)CSc2nnc3ccc(-c4ccc(F)cc4)nn23)cc1 | 0.562 µM [rising, full curve, poor fit] | –
Cc1ccc([N+](=O)[O-])cc1-c1ccc(/C=N\n2nnnc2N)o1 | 4.47 µM [falling, partial curve] | 7.08 µM [falling, full curve]
CCC1=C(c2ccc(C)cc2)S(=O)(=O)N=C1N1CCC(C(=O)Nc2ccccc2C(=O)OC)CC1 | 15.8 µM [falling, single point] | –
O=c1c2c3nc4ccccc4nc3n(Cc3ccccc3)c2ncn1Cc1ccco1 | 35.5 µM [falling, single point] | 25.1 µM [falling, single point]
CCOC(=O)c1sc(Nc2nc3c(F)cccc3s2)cc1C | 14.1 µM [rising, partial curve, poor fit] | 5.62 µM [rising, partial curve]
CC(=O)Nc1ccc(NCc2nnc3n2CCCCC3)cc1 | 0.112 µM [rising, full curve, poor fit] | 14.1 µM [rising, partial curve, poor fit]
Cc1ccc(NC(=O)c2c(C)nn(-c3ccccc3)c2Cl)cc1 | – | 0.0282 µM [rising, full curve, poor fit]
COC(=O)c1ccc(N2CCN(S(=O)(=O)c3ccc4ccccc4c3)CC2)c([N+](=O)[O-])c1 | – | 12.6 µM [rising, partial curve, poor fit]
O=C(NCc1ccco1)c1cc2nc(C3CC3)cc(C(F)(F)F)n2n1 | 5.62 µM [falling, single point] | 4.47 µM [falling, full curve, poor fit]
Cc1nnc(N2CCN(C(=O)Nc3cc(F)ccc3F)CC2)c2nn(-c3ccc(Cl)cc3)c(C)c12 | 12.6 µM [falling, partial curve] | 11.2 µM [falling, partial curve]

As entered above.
Under AC50 [2], `COc1ccc(N2CCN(C(=O)c3ccc(N4C(=O)NC5CC4(C)Oc4ccccc45)cc3)CC2)cc1` (stereo not given) reads 12.6 µM [rising, single point]
Under AC50 [1], `CCC1=C(c2ccc(C)cc2)S(=O)(=O)N=C1N1CCC(C(=O)Nc2ccccc2C(=O)OC)CC1` reads 15.8 µM [falling, single point]
Under AC50 [1], `Cc1ccc([N+](=O)[O-])cc1-c1ccc(/C=N\n2nnnc2N)o1` reads 4.47 µM [falling, partial curve]
Under AC50 [2], `O=C(O)c1ccc(CSc2nnc(SCc3ccccc3)s2)cc1` reads 35.5 µM [rising, single point]
Under AC50 [2], `CCOC(=O)c1ccc(NC(=O)CN2C(=O)C(C)(C)c3ccccc32)cc1` reads 7.94 µM [falling, full curve]

(next part)

Structure (SMILES) | AC50 [1] | AC50 [2]
c1ccc(CCSc2ncnc3nc[nH]c23)cc1 | 14.1 µM [rising, partial curve] | 12.6 µM [rising, partial curve]
O=C(Nc1ccccc1)N1CCCC(c2nc(-c3cccs3)no2)C1 (stereo not given) | 14.1 µM [rising, single point] | 15.8 µM [rising, single point]
COc1ccc(N2CCN(C(=O)CNS(=O)(=O)c3ccc(C)c(C)c3)CC2)cc1 | 0.0398 µM [falling, full curve, poor fit] | 5.01 µM [falling, single point]
CS(=O)(=O)c1cc([N+](=O)[O-])c(Sc2nc3ccccc3[nH]2)c([N+](=O)[O-])c1 | 35.5 µM [falling, single point] | 35.5 µM [falling, single point]
CC1CCCN(CCC(=O)c2ccc(Br)cc2)C1 (stereo not given) | – | 11.2 µM [rising, single point]
CC(/C=C1\SC(=S)N(C(C(=O)O)C(C)C)C1=O)=C\c1ccccc1 (stereo not given) | 8.91 µM [falling, partial curve] | –
O=C(Nc1nc(-c2ccc(S(=O)(=O)N3CCCC3)cc2)cs1)C1COc2ccccc2O1 (stereo not given) | – | 11.2 µM [rising, partial curve]
O=C(/C=C/c1cccc([N+](=O)[O-])c1)n1cnc2ccccc21 | 0.224 µM [falling, partial curve] | 0.891 µM [falling, partial curve, poor fit]
COc1ccccc1C(=O)NCC(=O)N/N=C/c1cn[nH]c1-c1ccccc1 | 10 µM [falling, partial curve] | –
Cc1c(Cl)cccc1NC(=O)CSc1nc(=O)n(CCN2CCOCC2)c2c1CCC2 | 0.631 µM [falling, full curve, poor fit] | –
O=C(N/C(=C\c1cccs1)C(=O)N1CCOCC1)c1cccs1 | – | 3.16 µM [falling, full curve]
O=C(/C=C/c1ccccc1)Nc1ncn[nH]1 | 3.16 µM [falling, partial curve] | 20 µM [falling, partial curve, poor fit]
COC(=O)C1=C(C)N(CC2CC2)C(=O)N[C@H]1c1ccc(Br)cc1 | 35.5 µM [rising, single point] | –
COc1cc(/C=N/Nc2ccc3ccccc3c2)ccc1OC(=O)c1ccco1 | – | 35.5 µM [rising, single point]
CCOC(=O)Nc1ccc2c(c1)N(C(=O)CCN1CCOCC1)c1ccccc1S2=O (stereo not given) | – | 10 µM [rising, partial curve]
O=C(CCCN1C(=O)C2CCCCN2C1=O)N1CCN(c2ccc([N+](=O)[O-])cc2)CC1 (stereo not given) | – | 12.6 µM [rising, partial curve]
CS(=O)(=O)Nc1cccc(-c2nc(NCc3ccccc3)c3ccccc3n2)c1 | 20 µM [falling, single point] | 15.8 µM [falling, single point]
CCNC(=S)NNC(=O)CCn1cc(C)cn1 | – | 0.01 µM [falling, full curve, poor fit]
Cc1sc2nc(SCC(=O)C(C)(C)C)n(Cc3ccco3)c(=O)c2c1C | 12.6 µM [falling, partial curve] | 6.31 µM [falling, partial curve]
CCOC(=O)C1CCN(CC(=O)Nc2c(C(=O)OC)[nH]c3ccc(Cl)cc23)CC1 | – | 14.1 µM [rising, single point]
OC(CN1CCN(c2cccc(C(F)(F)F)c2)CC1)c1c[nH]c2ccccc12 (stereo not given) | 8.91 µM [falling, single point] | –
Cc1ccc2c(c1)C(c1ccncc1)=NNC(c1cccnc1)=N2 | 0.0316 µM [falling, full curve, poor fit] | 0.0282 µM [falling, full curve, poor fit]
O=C(CN1CCCC1)N1CCCC(c2ccc(F)cc2)c2ccc(F)cc21 (stereo not given) | 0.112 µM [falling, full curve, poor fit] | –
CCOC(=O)c1c(NC(=O)C(C)NCc2ccco2)sc2c1CCC(C)C2 (stereo not given) | – | 12.6 µM [rising, single point]
CC(C)C(=O)N1CCN(c2ccc(NC(=O)c3ccc(Br)o3)cc2)CC1 | – | 35.5 µM [rising, single point]
CC(NC(=S)Nc1ccc([N+](=O)[O-])cc1)c1ccncc1 (stereo not given) | 0.141 µM [rising, full curve, poor fit] | –
CC(NC(=O)CCc1nnc(CCCc2ccccc2)o1)c1ccccc1 (stereo not given) | 0.00891 µM [falling, full curve, poor fit] | 14.1 µM [falling, partial curve]
